The target of assay [1] is Human erythrocyte acetylcholinesterase (Homo sapiens, UniProt P22303). As to conditions: read-out: AChE Inhibition In vitro IC50; tested form: HCl.
Assay [2] deals with MAO-A (Rattus norvegicus, UniProt P21396). In words: Inhibition of MAO activity in vitro, 5-HT as substrate. Type of assay: biochemical. Particulars: read-out: MAO-A Inhibition In vitro IC50; rat brain homogenate, 5-HT substrate; tested form: HCl.
Assay [3] addresses MAO-B (Rattus norvegicus, UniProt P19643). In words: Inhibition of MAO activity in vitro, PEA as substrate. It is filed as biochemical. Particulars: read-out: MAO-B Inhibition In vitro IC50, rat brain homogenate, tested form: HCl.
In assay [4] the target is MAO-B (Mus musculus, UniProt Q8BW75). In words: Inhibition of MAO activity ex vivo (brain). Type of assay: in vivo. Particulars: mice, brain tissue; tested form: HCl.
Assay [5] has as its target MAO-A (Mus musculus, UniProt Q64133). Briefly: Inhibition of MAO activity ex vivo (brain). As to conditions: mice, brain tissue; tested form: HCl. It is filed as in vivo.
Another assay addresses whole brain AChE (Mus musculus, UniProt P21836). Particulars: mice, at peak of activity, tested form: HCl.

The chains behind the UniProt entries cited, without tags or fusion partners. Residues count along the entry.
UniProt P22303, 32-617 isoform 2 limits assumed: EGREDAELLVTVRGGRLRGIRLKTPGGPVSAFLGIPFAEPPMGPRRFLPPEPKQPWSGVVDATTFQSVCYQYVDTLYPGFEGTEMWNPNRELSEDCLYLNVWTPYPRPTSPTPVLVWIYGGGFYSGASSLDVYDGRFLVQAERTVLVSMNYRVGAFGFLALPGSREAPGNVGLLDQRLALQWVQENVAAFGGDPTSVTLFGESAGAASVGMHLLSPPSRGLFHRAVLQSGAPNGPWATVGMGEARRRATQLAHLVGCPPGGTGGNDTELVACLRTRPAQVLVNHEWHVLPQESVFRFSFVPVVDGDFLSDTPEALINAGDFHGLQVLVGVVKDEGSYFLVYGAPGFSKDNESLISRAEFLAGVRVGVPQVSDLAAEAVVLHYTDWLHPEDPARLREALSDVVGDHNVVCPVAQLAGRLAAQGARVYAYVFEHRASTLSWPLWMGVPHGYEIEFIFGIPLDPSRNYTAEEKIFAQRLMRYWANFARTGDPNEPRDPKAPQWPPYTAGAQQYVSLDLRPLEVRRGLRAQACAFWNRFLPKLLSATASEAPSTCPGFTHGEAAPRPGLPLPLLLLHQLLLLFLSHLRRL
UniProt P21396, whole entry: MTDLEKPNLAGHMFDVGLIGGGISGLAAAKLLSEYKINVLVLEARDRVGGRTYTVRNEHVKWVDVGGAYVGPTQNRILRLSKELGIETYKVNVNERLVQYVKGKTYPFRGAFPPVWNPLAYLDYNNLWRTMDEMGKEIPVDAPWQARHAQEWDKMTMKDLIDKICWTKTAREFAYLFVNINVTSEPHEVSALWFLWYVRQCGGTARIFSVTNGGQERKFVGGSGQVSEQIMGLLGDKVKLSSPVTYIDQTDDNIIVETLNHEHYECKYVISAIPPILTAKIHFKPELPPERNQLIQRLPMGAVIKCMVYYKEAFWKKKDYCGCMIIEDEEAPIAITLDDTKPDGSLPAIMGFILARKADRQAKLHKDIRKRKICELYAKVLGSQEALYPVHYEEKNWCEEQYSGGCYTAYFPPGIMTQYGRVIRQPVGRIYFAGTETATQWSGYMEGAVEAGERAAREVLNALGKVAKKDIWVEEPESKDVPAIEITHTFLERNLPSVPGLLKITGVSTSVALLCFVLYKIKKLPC
UniProt P19643, whole entry: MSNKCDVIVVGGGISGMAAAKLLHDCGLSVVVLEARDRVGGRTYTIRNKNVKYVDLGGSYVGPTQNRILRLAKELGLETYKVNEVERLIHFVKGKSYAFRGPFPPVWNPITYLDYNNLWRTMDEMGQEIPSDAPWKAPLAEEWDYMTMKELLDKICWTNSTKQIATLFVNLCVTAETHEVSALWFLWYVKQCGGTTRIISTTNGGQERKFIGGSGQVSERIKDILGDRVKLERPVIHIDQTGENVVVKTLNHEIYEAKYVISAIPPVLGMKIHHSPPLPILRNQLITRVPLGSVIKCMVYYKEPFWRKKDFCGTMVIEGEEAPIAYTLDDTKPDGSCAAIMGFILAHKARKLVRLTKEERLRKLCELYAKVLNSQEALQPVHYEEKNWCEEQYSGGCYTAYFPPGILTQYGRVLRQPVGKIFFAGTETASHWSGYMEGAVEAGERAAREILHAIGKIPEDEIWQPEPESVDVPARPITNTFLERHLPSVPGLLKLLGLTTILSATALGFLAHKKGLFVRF
UniProt Q8BW75, whole entry: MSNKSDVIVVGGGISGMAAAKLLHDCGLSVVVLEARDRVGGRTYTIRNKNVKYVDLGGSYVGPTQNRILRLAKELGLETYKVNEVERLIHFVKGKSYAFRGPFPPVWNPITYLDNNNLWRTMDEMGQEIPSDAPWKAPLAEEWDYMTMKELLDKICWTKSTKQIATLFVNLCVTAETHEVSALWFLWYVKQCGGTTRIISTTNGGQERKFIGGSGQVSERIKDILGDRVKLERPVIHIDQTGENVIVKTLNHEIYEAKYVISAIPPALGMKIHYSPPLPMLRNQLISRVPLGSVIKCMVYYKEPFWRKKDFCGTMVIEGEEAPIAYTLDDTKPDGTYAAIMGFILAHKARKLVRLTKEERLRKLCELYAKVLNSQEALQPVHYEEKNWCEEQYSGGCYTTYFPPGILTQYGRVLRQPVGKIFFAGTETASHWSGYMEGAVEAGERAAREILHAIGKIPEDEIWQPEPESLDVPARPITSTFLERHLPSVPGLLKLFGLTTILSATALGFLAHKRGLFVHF
UniProt Q64133, whole entry: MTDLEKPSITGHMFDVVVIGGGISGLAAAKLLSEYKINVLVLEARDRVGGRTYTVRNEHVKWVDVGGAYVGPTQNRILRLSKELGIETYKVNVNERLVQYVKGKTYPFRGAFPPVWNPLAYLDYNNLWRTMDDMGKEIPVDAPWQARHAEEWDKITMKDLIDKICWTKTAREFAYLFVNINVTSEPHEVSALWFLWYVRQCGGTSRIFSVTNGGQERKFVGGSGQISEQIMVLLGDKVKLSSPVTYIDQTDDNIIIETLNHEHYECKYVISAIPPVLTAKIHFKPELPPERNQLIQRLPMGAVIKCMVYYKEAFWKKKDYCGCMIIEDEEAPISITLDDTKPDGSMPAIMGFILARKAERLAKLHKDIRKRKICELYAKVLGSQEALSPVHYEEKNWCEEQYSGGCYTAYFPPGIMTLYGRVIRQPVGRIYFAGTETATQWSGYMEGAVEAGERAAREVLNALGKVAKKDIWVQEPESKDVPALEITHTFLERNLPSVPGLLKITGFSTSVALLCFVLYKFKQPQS
UniProt P21836, 32-614 limits assumed: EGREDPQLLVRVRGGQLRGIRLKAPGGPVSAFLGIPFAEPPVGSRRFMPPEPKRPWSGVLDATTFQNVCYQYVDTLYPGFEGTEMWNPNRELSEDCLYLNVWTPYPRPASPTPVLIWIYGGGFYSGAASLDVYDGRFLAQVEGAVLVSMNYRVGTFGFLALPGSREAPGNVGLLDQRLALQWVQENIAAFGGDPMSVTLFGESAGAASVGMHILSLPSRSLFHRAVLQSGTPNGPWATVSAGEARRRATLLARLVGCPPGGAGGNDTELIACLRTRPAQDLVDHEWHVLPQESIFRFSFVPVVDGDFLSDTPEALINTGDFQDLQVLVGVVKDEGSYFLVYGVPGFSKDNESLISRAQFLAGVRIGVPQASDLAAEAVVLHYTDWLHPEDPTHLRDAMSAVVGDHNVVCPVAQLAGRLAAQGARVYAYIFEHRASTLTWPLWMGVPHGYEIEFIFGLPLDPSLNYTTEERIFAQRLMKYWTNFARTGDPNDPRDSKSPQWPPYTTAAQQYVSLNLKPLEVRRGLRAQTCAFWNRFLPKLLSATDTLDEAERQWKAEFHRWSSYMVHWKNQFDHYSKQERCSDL

For orientation: IC50 means the midpoint of a concentration-inhibition curve.

SMILES strings stand for the structures. The structures given here were assigned with low confidence; some may be wrong. Where only a bound is given, the exact number is not on record here.

Regarding `C#CC(C)NC1CCc2ccc(OC(=O)N(C)C)cc21` (stereo not drawn), the IC50 in assay [1] was 1.9 µM; at MAO-A [2], 1000 µM; at MAO-B [3] it was greater than 1000 µM. For the same molecule, the “MAO-B Inhibition Ex vivo ED50” value on MAO-B [4] is greater than 120 µmol/kg. Moreover, the “MAO-A Inhibition Ex vivo ED50” value at MAO-A [5] is greater than 120 µmol/kg. Further, the “AChE Inhibition Ex vivo ED50 (AC)” value at whole brain AChE turned out to be 13.2 µmol/kg.

(Values after patent USRE39616E1, “Aminoindan derivatives” (priority 1996, dated 2007).)
